This note sets out measurements from PMC12242767.

Results are given in words; binding and its absence hold for the method and conditions named. In cells and extracts the contact can be indirect. These calls come from enrichment with a bait or labelling near it, and not all partners need be listed. For part of these data: Tags and fused reporters may be left off the sequences shown.

Assay [1] deals with T1, Cbs2-BirA* (S. cerevisiae) (UniProt P14905).
T1 sequence: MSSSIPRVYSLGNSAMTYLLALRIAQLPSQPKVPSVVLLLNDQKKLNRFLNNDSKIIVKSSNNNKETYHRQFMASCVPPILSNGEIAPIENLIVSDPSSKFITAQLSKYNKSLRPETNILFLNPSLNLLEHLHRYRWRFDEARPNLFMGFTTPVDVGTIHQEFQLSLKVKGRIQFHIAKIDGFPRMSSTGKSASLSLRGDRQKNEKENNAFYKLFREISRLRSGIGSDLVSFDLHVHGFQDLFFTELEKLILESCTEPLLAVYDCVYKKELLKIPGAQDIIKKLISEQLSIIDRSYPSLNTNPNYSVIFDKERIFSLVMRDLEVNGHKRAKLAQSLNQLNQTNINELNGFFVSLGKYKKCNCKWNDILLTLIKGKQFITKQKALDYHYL
The experiment in a line: proximity labelling; Bio-ID: C-terminal BirA* fusions in yeast grown overnight in YPG or YPGal with 50 μM biotin; mitochondria lysed in 1% SDS, streptavidin beads, mass spectrometry; compared to a Kgd4-BirA* control, or WT compared to mrx4Δ.

Assay [2] concerns the target T2, Cbp3-BirA* (S. cerevisiae) (UniProt P21560).
T2 sequence: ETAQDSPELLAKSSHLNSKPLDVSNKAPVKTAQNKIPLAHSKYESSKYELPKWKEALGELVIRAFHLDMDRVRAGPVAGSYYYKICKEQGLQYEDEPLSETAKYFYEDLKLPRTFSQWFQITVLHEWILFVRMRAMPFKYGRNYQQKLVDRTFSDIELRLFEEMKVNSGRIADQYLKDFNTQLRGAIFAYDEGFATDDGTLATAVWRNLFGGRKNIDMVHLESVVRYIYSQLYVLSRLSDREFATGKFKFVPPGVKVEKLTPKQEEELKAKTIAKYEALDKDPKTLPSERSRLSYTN
The description is as above.

In assay [3] the target is T3, Cbp3-ALFA (S. cerevisiae) (UniProt P21560).
T3 sequence: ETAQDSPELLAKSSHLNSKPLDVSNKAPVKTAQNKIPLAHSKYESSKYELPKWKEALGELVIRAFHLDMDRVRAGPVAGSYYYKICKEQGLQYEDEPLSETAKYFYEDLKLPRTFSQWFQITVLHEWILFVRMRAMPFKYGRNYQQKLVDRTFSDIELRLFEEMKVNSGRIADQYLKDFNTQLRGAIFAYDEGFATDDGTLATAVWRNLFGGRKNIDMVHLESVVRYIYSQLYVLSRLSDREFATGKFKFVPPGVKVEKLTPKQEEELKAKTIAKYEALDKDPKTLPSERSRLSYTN
As to the kind of experiment: cross-linking + affinity purification with mass spectrometry; ALFA-XLP of Cbp3-ALFA: isolated mitochondria treated with 200 μM MBS or BMOE, 30 min 30°C; lysis with 8 M urea, ALFA selector beads, washes with SDS and 6 M urea; compared to a control without crosslinking.

Assay [4] deals with T4, Mrx4-GFP-ALFA (S. cerevisiae) (UniProt Q12467).
T4 sequence: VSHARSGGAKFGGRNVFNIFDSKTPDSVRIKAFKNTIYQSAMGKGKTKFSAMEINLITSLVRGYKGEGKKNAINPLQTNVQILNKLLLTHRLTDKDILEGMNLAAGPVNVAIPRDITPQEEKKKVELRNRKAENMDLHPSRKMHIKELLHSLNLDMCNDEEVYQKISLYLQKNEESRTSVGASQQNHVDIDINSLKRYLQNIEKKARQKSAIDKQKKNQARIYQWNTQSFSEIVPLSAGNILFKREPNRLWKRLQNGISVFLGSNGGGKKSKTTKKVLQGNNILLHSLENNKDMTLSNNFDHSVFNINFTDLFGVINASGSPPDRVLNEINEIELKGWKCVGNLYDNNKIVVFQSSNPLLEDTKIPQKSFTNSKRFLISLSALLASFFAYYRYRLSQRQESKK
The experiment in a line: cross-linking + affinity purification with mass spectrometry; ALFA-XLP of Mrx4-GFP-ALFA: isolated mitochondria treated with the crosslinker MBS, compared to DMSO; also WT compared to the cob::ARG8 background; lysis with 8 M urea, ALFA selector beads, washes with SDS and 6 M urea.

B1: Sov1 (protein, UniProt Q04748 32-898)
chain: ASHIPEVLNKTIIGPDEPEKCLILKGKTSEEIENNLLSNKKFQEINPLDTIQETFIQYLKFCNETNFKRSNKNLNRLKKTLESKDSNSTVKINAVFNYLLEECDLEIKRLNTTGQTQVYNEEKGNEDDLEQSIMNDIFRSAQEQFEDQEGHIPLRSTSFLLEILKSFNERFNGIIKPKESITEMVTFSQLAQAFEVVKLIPVQEMKEKGIYLVGNLLYGTGKVRLDPINESFYIESLLVFGNYKAAYSLFITNKDKVNERWWNELGLMITLRSNHLRNFRKLLAETDAKYSTKYSYLSPRVTKLSIRKYLSIGNVTEANILTDRFIKLVEEVGIIRMKDEQEELPTGVKNFQNEKHATEFLNELEIPSDHDYISIVDFHLYKRNIPMAAQLISKYMEIPGTTQEDAAFLLVKTKLNMLKDFEKLRNIFAQNKDYVVPENNVKMLQEAFESVITKYNTNSPIYNELLFENVSALTKSIVLTDFLEEFITKQASGQWMELNSVSRSRKFNGLLNILLGTGEEEKAYNILKKLEEASKKSKTDPDLLYNQFYSEVNAYHYAKFVEFYSLQIQNMKAQNTPSFRKKEFKQKVKSLLKRMQESEVIPNAVFLREILNFYDSMYDFNSSFEIINPLLESKQQVSSESSLSTSNPCRFYNRRIITKPLYHKIWSVYCHYYHVLQNNSRILSKKSSIVKKLIKRQIKIHPTCHPRVLFQMTAENGEILPDKTFSKLIVSTFMKSGDLEAIPAILTFLTKKFDLNIDYDLSMYILKGLKRQYLRDISNISKDACEYKLRKAELMNNESILKNIPQGTNQENTISHLIREILIFIKWKEKSDCSTFLMVEDAFKELGTEFTLLEELIEDVNKLKIKA
Consider B1, for which the binding entry in assay [1] is on record as “binds”.

B2: Mdm38 (protein, UniProt Q08179 57-573)
chain: STDKSKSVTKPVAPTSTDAPAKPKETLMVKVKHALKHYANGTKLLGYEIKVSTKLLIKFAQGYELSRRERNQLRRTMGDVFRLIPFSAFLIIPFAELFLPFALKLFPNLLPSTYESGKDKQAKRNKLIEIRKKTSEFLHETLEESNLITYNTIENAEKKQKFLNFFRKLYSAKEGKIMTFQHDEISAIAQMFKNDSVLDNLSRPQLAAMSKFMSLRPFGNDNMLRYQIRSKLKDIMNDDKTIDYEGVESLSQEELYQACVSRGMKAYGVSKEDLVDNLKVWLELRLRQKIPSVLMVLSSTFTFGGLPKENYSKAFSPLAEKKETKSKYDDLLDLYYDGILQVLSSIPDPVYNVAKLDVSESKSSAAETEAEKQVAEKKIKTEEKPEETAIPKEEATAKESVIATTASAVTPKLVVVNEKAETAKTEEISQEKENAEPTDSAEATEAEEKKTSDDNEFKLNVLKEQEELIKKEEEEAKQRASREHVPDDINLDEEEEAKSVPPIPADQAAKTFVIKKD
Take B2: the binding entry in assay [2] is recorded as “binds”.

B3: Cbp6 (protein, UniProt P07253 1-162)
chain: MSSSQVVRDSAKKLVNLLEKYPKDRIHHLVSFRDVQIARFRRVAGLPNVDDKGKSIKEKKPSLDEIKSIINRTSGPLGLNKEMLTKIQNKMVDEKFTEESINEQIRALSTIMNNKFRNYYDIGDKLYKPAGNPQYYQRLINAVDGKKKESLFTAMRTVLFGK
Consider B3, for which the binding entry in assay [3], in assay [4] and in assay [2] was “binds” in each case.

B4: Cbp3 (protein, UniProt P21560 39-335)
chain: ETAQDSPELLAKSSHLNSKPLDVSNKAPVKTAQNKIPLAHSKYESSKYELPKWKEALGELVIRAFHLDMDRVRAGPVAGSYYYKICKEQGLQYEDEPLSETAKYFYEDLKLPRTFSQWFQITVLHEWILFVRMRAMPFKYGRNYQQKLVDRTFSDIELRLFEEMKVNSGRIADQYLKDFNTQLRGAIFAYDEGFATDDGTLATAVWRNLFGGRKNIDMVHLESVVRYIYSQLYVLSRLSDREFATGKFKFVPPGVKVEKLTPKQEEELKAKTIAKYEALDKDPKTLPSERSRLSYTN
On to B4, for which the binding entry in assay [4] was “binds”.

B5: Bca1 (protein, UniProt Q08023 26-583)
chain: AKQPQYDEAELFAENINHGAYKAKKRPSDEHFQWPEKSPDQITKESELQWERMAKLSAVGQGILILVVVGGLGTAYLRWPELKSWWLIKMNGGRINATQEQSGQDSLEKLIRQKAKNLLREIPQVPAFQLGIDHPGVYIWGRCHSKDSLFPVRVPNLDGRKFRDILLAPSDDFNTNFAIDEKGDLISWDDLGQTKTILPDQDLTSMKYSSHFLYALNKKGEILVIPIRTPDLIASQVSSRRSKLLPWKTKLRYDWKLQTNQIFNGKEGEKRVVQFDAGSHHLVLLSNLGKAYCCATGNDQKQAQVSKGQFGIPTFSQFDEFPPNNQLFEIELLNKFKHEGEDVVRKREIKKIACGSYHTLAIDKTGEIYAFGWNRFGQLALPISYNLEYVSFPRSVTHAFKPHFPGMTNWKCVDIHCDDETSFVTIRKPGSTSDHHYFAFGNGLFGELGNNTFKNSQCDPIKIKSDDKKLTNWSCGSHCVFTETEQENEVIAWGNNDHGQLGIGKKTMKCAKPMNIPEVLKPGQDTTDLDSIYNSKLHLKKEQRVVTNGNKSCLYWRV
As to B5, the binding entry in assay [4] and in assay [2] was “binds” in each case.

B6: Mrx4 (protein, UniProt Q12467 28-430)
chain: VSHARSGGAKFGGRNVFNIFDSKTPDSVRIKAFKNTIYQSAMGKGKTKFSAMEINLITSLVRGYKGEGKKNAINPLQTNVQILNKLLLTHRLTDKDILEGMNLAAGPVNVAIPRDITPQEEKKKVELRNRKAENMDLHPSRKMHIKELLHSLNLDMCNDEEVYQKISLYLQKNEESRTSVGASQQNHVDIDINSLKRYLQNIEKKARQKSAIDKQKKNQARIYQWNTQSFSEIVPLSAGNILFKREPNRLWKRLQNGISVFLGSNGGGKKSKTTKKVLQGNNILLHSLENNKDMTLSNNFDHSVFNINFTDLFGVINASGSPPDRVLNEINEIELKGWKCVGNLYDNNKIVVFQSSNPLLEDTKIPQKSFTNSKRFLISLSALLASFFAYYRYRLSQRQESKK
As for B6, the binding entry in assay [3], in assay [1] and in assay [2] was “binds” each time.

B7: Cbs2 (protein, UniProt P14905 1-389)
chain: MSSSIPRVYSLGNSAMTYLLALRIAQLPSQPKVPSVVLLLNDQKKLNRFLNNDSKIIVKSSNNNKETYHRQFMASCVPPILSNGEIAPIENLIVSDPSSKFITAQLSKYNKSLRPETNILFLNPSLNLLEHLHRYRWRFDEARPNLFMGFTTPVDVGTIHQEFQLSLKVKGRIQFHIAKIDGFPRMSSTGKSASLSLRGDRQKNEKENNAFYKLFREISRLRSGIGSDLVSFDLHVHGFQDLFFTELEKLILESCTEPLLAVYDCVYKKELLKIPGAQDIIKKLISEQLSIIDRSYPSLNTNPNYSVIFDKERIFSLVMRDLEVNGHKRAKLAQSLNQLNQTNINELNGFFVSLGKYKKCNCKWNDILLTLIKGKQFITKQKALDYHYL
On to B7, for which the binding result in assay [4] was “binds”.
